Measured values taken from patent US11672774B2, “Methods of treating squamous cell carcinomas with farnesyltransferase inhibitors” (Kura Oncology, Inc., priority 2019, dated 2023).
“Also recorded” adds a separate entry of the source. At least one compound was matched to its structure with a doubt left.

Columns and labels:
HNSCC PDX Model HN2576 = test: tumor growth in HNSCC PDX model HN2576; format: in vivo, BALB/c nude or Nu/nu mice; details: vs vehicle
Procedure: (§1) Female BALB/c nude or Nu/nu mice (6-8 weeks) were inoculated subcutaneously on the right flank with primary human tumor model fragment (2-3 mm in diameter) for tumor development. When average tumor size reaches about 250-350 mm^3, mice were randomly grouped into dosing groups. Animals were dosed with tipifarnib vehicle (20% w/v Hydroxypropyl-β-cyclodextrin) or tipifarnib at a dose of 80 mg/kg BID PO for 3-4 weeks and tumor dimensions were measured twice per week.
(§2) The ability of tipifarnib to inhibit tumor growth was determined using selected patient-derived xenograft (PDX) models of HNSCC. The selected models expressed different levels of H-Ras or had different high ratios of H-Ras expression to the combined expression of K-Ras and N-Ras (“H/K+N ratio”). The expression levels of H-Ras, K-Ras and N-Ras in these PDX models were determined by RNAseq.
(§3) After tumor development, mice were administered either vehicle, tipifarnib (80 mg/kg PO BID), a second active agent, or a combination of tipifarnib and a second active agent.
(§4) After tumor development, mice were administered either vehicle, tipifarnib (at a reduced dosing of 60 mg/kg PO BID), a second active agent, or a combination of tipifarnib and a second active agent.

HNSCC PDX Model HN2594 = test: tumor growth in HNSCC PDX model HN2594; format: in vivo, BALB/c nude or Nu/nu mice; details: vs vehicle
Procedure: as §1, §2
After tumor development, mice were administered either vehicle, tipifarnib, a second active agent, or a combination of tipifarnib and a second active agent.
as §3, §4

ESCC PDX Model ES0204 = test: tumor growth in ESCC PDX model ES0204; format: in vivo, nude mice; details: ESCC PDX ES0204, H/K+N 6.3; tipifarnib as in Example I (80 mg/kg BID PO); vs vehicle
[1] = test system: breast cancer PDX Model BR1282; test: tumor growth in breast cancer PDX model BR1282; format: in vivo, nude mice; details: breast cancer PDX BR1282, H/K+N 22.6; tipifarnib as in Example I (80 mg/kg BID PO); vs vehicle
[2] = test system: HNSCC PDX Model HN2579 (HRAS G12S); test: tumor growth in mutated H-Ras HNSCC PDX model HN2579; format: in vivo, BALB/c nude or Nu/nu mice; details: vs vehicle
Procedure: as §1
(§5) The ability of tipifarnib in combination with a second therapy to inhibit tumor growth was determined using selected patient-derived xenograft (PDX) models of HNSCC, wherein the selected models expressed mutated H-Ras. The expression levels of the H-Ras mutants in these PDX models were determined by RNAseq.
(§6) After tumor development, mice were administered either vehicle, tipifarnib (80 mg/kg PO BID), a second active agent, or a combination of tipifarnib and a second active agent. The second agent was alkylating agent cisplatin (3 mg/kg IP QW).
(§7) After tumor development, mice were administered either vehicle, tipifarnib (at a reduced dosing of 60 mg/kg PO BID), a second active agent, or a combination of tipifarnib and a second active agent. The second agent was PI3K-α inhibitor BYL719 (50 mg/kg PO QD).

[3] = test system: HNSCC PDX Model HN2581 (HRAS G13C); test: tumor growth in mutated H-Ras HNSCC PDX model HN2581; format: in vivo, BALB/c nude or Nu/nu mice; details: vs vehicle
Procedure: as §1, §5, §6, §7

HNSCC PDX Model HN3792 = test: tumor growth in HNSCC PDX model HN3792; format: in vivo, BALB/c nude or Nu/nu mice; details: PDX HN3792, H-Ras 2.5x median, H/K+N 3.4; tipifarnib 80 mg/kg PO BID, cisplatin 3 mg/kg IP QW; vs vehicle
Procedure: as §1, §3

HNSCC PDX Model HN0586 = test: tumor growth in HNSCC PDX model HN0586; format: in vivo, BALB/c nude or Nu/nu mice; details: PDX HN0586, H-Ras 2.1x median, H/K+N 2.9; tipifarnib 80 mg/kg PO BID, cisplatin 3 mg/kg IP QW; vs vehicle
Procedure: as §1, §3

HNSCC PDX Model HN3067 = test: tumor growth in HNSCC PDX model HN3067; format: in vivo, BALB/c nude or Nu/nu mice; details: vs vehicle
Procedure: as §1, §3, §7

[4] = test system: HNSCC PDX Model HN3690 (PI3K-α E545K); test: tumor growth in HNSCC PDX model HN3690; format: in vivo, BALB/c nude or Nu/nu mice; details: PDX HN3690, high H-Ras, mutated PIK3CA (E545K); tipifarnib reduced dosing 60 mg/kg PO BID, BYL719 50 mg/kg PO QD; vs vehicle
Procedure: as §1
As described in Example I, mice were inoculated subcutaneously on the flank with PDX HNSCC models having high H-Ras expression levels and having wild type PIK3CA expression levels HN3067 (FIG. 16A) and HN3411 (FIG. 16C), or having high H-Ras expression levels and having mutated PIK3CA expression levels HN2593 (FIG. 16B) and HN3690 (FIG. 16D), wherein the mutation is or comprises a modification in a codon of the mutant PIK3CA gene (referred to as PIK3CA^G118D and PIK3CA^E545K in FIGS. 16B and 16D, respectively) encoding an amino acid at the specified position to provide the resulting mutated PI3K-α protein PI3K-α G118D and PI3K-α E545K, respectively. After tumor development, mice were administered either vehicle, tipifarnib (at a reduced dosing of 60 mg/kg PO BID), a second active agent, or a combination of tipifarnib and a second active agent. The second agent was PI3K-α inhibitor BYL719 (50 mg/kg PO QD).

[5] = tipifarnib 80 mg/kg PO BID, cisplatin 3 mg/kg IP QW
[6] = tipifarnib reduced dosing 60 mg/kg PO BID, BYL719 50 mg/kg PO QD

## Cn1cncc1[C@@](N)(c1ccc(Cl)cc1)c1ccc2c(c1)c(-c1cccc(Cl)c1)cc(=O)n2C [tipifarnib]
HNSCC PDX Model HN2576; PDX HN2576, wild type H-Ras, H-Ras 3.0x median, H/K+N 4.6, tipifarnib 80 mg/kg PO BID, cisplatin 3 mg/kg IP QW, palbociclib 35 mg/kg PO QD, cetuximab 1 mg/mouse IP QW
  tumor growth: induced tumor regression; also recorded: significantly inhibited tumor growth
HNSCC PDX Model HN2576; PDX HN2576, tipifarnib reduced dosing 60 mg/kg PO BID, BYL719 50 mg/kg PO QD, GSK2141795 30 mg/kg PO QD, INK-128 0.3 mg/kg PO QD
  tumor growth: had activity
HNSCC PDX Model HN2594; PDX HN2594, wild type H-Ras, H-Ras 2.8x median, H/K+N 3.6, tipifarnib 80 mg/kg PO BID, cisplatin 3 mg/kg IP QW, palbociclib 35 mg/kg PO QD, cetuximab 1 mg/mouse IP QW
  tumor growth: significantly inhibited tumor growth; also recorded: partial response (inhibited tumor growth); also recorded: had activity
HNSCC PDX Model HN2594; PDX HN2594, tipifarnib reduced dosing 60 mg/kg PO BID, BYL719 50 mg/kg PO QD, GSK2141795 30 mg/kg PO QD, INK-128 0.3 mg/kg PO QD
  tumor growth: had activity
ESCC PDX Model ES0204
  tumor growth: tumor regression; also recorded: effectively inhibited the tumor growth
[1]
  tumor growth: did not inhibit tumor growth; also recorded: Such efficacy, however, was not observed
[2]; [5]
  tumor growth: high activity and induced tumor regression
[2]; [6]
  tumor growth: had activity
[3]; [5]
  tumor growth: high activity and induced tumor regression
[3]; [6]
  tumor growth: induced tumor regression
HNSCC PDX Model HN3792
  tumor growth: had activity
HNSCC PDX Model HN0586
  tumor growth: had activity
HNSCC PDX Model HN3067; PDX HN3067, H-Ras 2.7x median, H/K+N 2.8, tipifarnib 80 mg/kg PO BID, cisplatin 3 mg/kg IP QW, palbociclib 35 mg/kg PO QD, cetuximab 1 mg/mouse IP QW
  tumor growth: had activity; also recorded: moderate activity
HNSCC PDX Model HN3067; PDX HN3067, high H-Ras, wild type PIK3CA, tipifarnib reduced dosing 60 mg/kg PO BID, BYL719 50 mg/kg PO QD
  tumor growth: had activity
[4]
  tumor growth: had activity
